# Measurements: paper PMC7862700
# Sequences of proteins named here, by UniProt entry; tags and fusion partners are left off. A change or cut given only in a name is not applied to a line headed by its entry.
# UniProt P41161: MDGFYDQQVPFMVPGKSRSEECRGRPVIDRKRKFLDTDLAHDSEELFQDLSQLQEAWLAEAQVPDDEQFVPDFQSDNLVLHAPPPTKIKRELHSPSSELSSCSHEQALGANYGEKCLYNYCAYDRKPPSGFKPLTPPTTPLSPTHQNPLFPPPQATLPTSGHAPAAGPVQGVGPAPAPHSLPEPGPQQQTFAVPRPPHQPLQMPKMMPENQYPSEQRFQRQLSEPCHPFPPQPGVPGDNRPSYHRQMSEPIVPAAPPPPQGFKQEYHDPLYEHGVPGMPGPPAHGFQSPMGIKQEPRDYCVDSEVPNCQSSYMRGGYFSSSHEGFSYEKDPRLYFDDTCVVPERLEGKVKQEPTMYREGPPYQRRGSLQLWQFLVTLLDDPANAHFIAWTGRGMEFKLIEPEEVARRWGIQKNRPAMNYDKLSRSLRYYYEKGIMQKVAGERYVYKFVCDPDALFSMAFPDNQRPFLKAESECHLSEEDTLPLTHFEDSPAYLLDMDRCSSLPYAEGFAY
# UniProt Q01892: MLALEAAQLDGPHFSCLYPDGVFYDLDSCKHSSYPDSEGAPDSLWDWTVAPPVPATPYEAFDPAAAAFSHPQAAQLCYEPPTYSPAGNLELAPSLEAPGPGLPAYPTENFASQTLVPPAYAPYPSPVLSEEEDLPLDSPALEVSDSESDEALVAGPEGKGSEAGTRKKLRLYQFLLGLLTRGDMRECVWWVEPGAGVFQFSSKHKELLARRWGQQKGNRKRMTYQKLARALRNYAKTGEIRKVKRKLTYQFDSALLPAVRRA
# UniProt Q99607: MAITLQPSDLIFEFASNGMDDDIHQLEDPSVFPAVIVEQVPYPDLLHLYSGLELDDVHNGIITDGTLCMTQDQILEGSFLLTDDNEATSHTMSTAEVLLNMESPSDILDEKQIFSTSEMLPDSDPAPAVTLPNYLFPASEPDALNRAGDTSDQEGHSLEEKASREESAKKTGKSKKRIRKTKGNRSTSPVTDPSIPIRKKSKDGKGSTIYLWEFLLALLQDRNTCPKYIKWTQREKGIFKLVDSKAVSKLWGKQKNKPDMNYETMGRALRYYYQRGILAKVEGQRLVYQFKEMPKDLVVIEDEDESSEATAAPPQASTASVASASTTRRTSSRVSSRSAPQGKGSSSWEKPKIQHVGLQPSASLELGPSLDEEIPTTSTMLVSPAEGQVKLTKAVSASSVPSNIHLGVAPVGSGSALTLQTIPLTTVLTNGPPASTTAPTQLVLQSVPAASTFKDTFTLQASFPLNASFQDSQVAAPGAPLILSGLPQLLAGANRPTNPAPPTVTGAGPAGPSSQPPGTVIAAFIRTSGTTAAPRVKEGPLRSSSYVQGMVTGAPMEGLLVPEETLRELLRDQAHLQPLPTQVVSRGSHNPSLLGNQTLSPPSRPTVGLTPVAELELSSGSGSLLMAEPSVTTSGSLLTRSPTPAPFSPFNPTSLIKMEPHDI
# Only a part is listed here, and it is no random draw. At the low end of the ranking the order means little.
# Key:
# Experiment in all cases: DAPPL (digital affinity profiling via proximity ligation, sequencing)
# Settings in all cases: 10 mM Tris-HCl pH 7.5, 50 mM NaCl, 1 mM DTT, 4% glycerol, room temperature, 30 min; GST-TFs on glutathione beads, 16-mer random dsDNA library, 0.1% …; high values mean tight binding; double strand, one strand shown; scale: fold enrichment (6-mer frequency, TF over GST control)
# EHF = biological target: T1, EHF (UniProt Q9NZC4)
# T1 sequence: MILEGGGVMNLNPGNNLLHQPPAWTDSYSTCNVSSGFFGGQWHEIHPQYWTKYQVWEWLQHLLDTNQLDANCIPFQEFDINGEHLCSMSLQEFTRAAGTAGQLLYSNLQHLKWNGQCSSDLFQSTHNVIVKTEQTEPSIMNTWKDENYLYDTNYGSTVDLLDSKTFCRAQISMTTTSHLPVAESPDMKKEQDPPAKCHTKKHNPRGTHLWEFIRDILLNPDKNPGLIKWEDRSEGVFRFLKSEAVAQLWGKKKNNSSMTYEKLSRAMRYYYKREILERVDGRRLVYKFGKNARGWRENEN
# ETV5 = ETV5 (UniProt P41161)
# SPIB = SPIB (UniProt Q01892)
# ETV3L = biological target: T2, ETV3L (UniProt Q6ZN32)
# T2 sequence: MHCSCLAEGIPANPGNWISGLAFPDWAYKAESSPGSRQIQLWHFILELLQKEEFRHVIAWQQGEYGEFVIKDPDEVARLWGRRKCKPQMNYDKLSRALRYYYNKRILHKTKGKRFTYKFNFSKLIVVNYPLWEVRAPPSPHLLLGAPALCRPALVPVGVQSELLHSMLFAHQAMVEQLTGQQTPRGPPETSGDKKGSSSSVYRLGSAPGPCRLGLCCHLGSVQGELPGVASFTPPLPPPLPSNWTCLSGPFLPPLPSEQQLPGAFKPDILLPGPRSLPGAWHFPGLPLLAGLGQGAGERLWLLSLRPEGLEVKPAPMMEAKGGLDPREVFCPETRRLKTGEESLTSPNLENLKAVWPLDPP
# FLI1 = biological target: T3, FLI1 (UniProt Q01543)
# T3 sequence: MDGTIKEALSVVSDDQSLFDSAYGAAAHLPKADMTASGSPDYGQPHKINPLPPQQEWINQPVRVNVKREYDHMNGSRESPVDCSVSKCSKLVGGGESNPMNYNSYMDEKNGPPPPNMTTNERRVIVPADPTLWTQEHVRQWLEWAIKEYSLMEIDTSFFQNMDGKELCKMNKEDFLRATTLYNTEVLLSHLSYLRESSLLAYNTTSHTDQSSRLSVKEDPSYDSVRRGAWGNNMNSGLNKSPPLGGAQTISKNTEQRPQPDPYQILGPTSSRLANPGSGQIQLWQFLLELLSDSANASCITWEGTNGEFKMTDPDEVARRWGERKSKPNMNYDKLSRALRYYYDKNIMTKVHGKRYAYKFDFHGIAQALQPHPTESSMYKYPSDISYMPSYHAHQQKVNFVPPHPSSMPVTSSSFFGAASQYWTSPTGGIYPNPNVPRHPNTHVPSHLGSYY
# ELF4 = ELF4 (UniProt Q99607)
# ETV2 = biological target: T4, ETV2 (UniProt O00321)
# T4 sequence: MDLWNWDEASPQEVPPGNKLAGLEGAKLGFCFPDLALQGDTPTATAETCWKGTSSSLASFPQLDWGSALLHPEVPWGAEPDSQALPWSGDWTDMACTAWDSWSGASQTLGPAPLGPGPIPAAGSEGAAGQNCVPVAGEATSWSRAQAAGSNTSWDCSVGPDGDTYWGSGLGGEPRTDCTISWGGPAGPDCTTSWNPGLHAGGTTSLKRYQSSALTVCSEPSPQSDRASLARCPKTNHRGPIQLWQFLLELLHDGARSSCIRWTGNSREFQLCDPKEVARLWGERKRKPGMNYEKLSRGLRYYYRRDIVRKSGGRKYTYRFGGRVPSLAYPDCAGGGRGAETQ
sequence,measurement,setting,value
CCTCTG,binding signal,EHF,1.67
same,binding signal,ETV5,1.56
CAACTT,binding signal,EHF,1.54
same,binding signal,ETV5,1.58
TGATTG,binding signal,EHF,0.99
same,binding signal,ETV5,0.992
GTTAAA,binding signal,EHF,0.998
same,binding signal,ETV5,1.02
GAAAAC,binding signal,EHF,1.09
same,binding signal,ETV5,1.13
CCGTCT,binding signal,SPIB,1.45
same,binding signal,ETV5,1.36
same,binding signal,ETV3L,1.4
TATCCA,binding signal,SPIB,1.36
same,binding signal,ETV5,1.27
same,binding signal,ETV3L,1.28
CTTAGT,binding signal,SPIB,1.19
same,binding signal,ETV5,1.3
same,binding signal,ETV3L,1.18
CTCGAG,binding signal,EHF,1.21
same,binding signal,ETV5,1.26
CCGGTT,binding signal,EHF,1.97
same,binding signal,ETV5,2.15
ATACGA,binding signal,EHF,1.12
same,binding signal,ETV5,1.17
CTTATA,binding signal,SPIB,1.39
same,binding signal,ETV5,1.29
same,binding signal,ETV3L,1.35
AATATG,binding signal,EHF,1.09
same,binding signal,ETV5,1.2
TTAGCT,binding signal,EHF,1.2
same,binding signal,ETV5,1.2
TTATCC,binding signal,EHF,1.52
same,binding signal,ETV5,1.45
TTTTTC,binding signal,EHF,1.23
same,binding signal,ETV5,1.27
CGCGAT,binding signal,EHF,0.937
same,binding signal,ETV5,0.933
AATAGT,binding signal,EHF,1.23
same,binding signal,ETV5,1.27
AGCGCC,binding signal,EHF,1.13
same,binding signal,ETV5,1.04
TATGCC,binding signal,SPIB,1.26
same,binding signal,ETV5,1.18
same,binding signal,ETV3L,1.12
CATTGC,binding signal,EHF,1.15
same,binding signal,ETV5,0.995
GCTCTT,binding signal,EHF,1.29
same,binding signal,ETV5,1.53
ACCTAT,binding signal,EHF,1.21
same,binding signal,ETV5,1.14
TCCCCC,binding signal,EHF,1.52
same,binding signal,ETV5,1.48
ATTGTT,binding signal,EHF,1.53
same,binding signal,ETV5,1.57
TCCAAA,binding signal,SPIB,1.17
same,binding signal,ETV5,1.12
same,binding signal,ETV3L,1.18
ATGGTC,binding signal,EHF,1.47
same,binding signal,ETV5,1.57
AATGGT,binding signal,EHF,1.4
same,binding signal,ETV5,1.46
ATTCTC,binding signal,EHF,1.27
same,binding signal,ETV5,1.31
TAGCCT,binding signal,EHF,1.26
same,binding signal,ETV5,1.22
GCACTG,binding signal,EHF,1.12
same,binding signal,ETV5,1.05
ATAAGA,binding signal,EHF,0.991
same,binding signal,ETV5,0.985
TGTCAC,binding signal,EHF,1.22
same,binding signal,ETV5,1.15
AGATCT,binding signal,SPIB,0.978
same,binding signal,ETV5,0.929
same,binding signal,ETV3L,0.988
GTTAAT,binding signal,EHF,1.16
same,binding signal,ETV5,1.17
CCTGCG,binding signal,EHF,1.31
same,binding signal,ETV5,1.27
CATGCG,binding signal,SPIB,0.982
same,binding signal,ETV5,0.987
same,binding signal,ETV3L,1.01
CGTATC,binding signal,SPIB,1.2
same,binding signal,ETV5,1.13
same,binding signal,ETV3L,1.24
TGCTGG,binding signal,EHF,1.11
same,binding signal,ETV5,1.04
ACAATT,binding signal,EHF,1.23
same,binding signal,SPIB,1.2
same,binding signal,ETV5,1.33
CGTCAC,binding signal,SPIB,1.18
same,binding signal,ETV5,1.24
ACGCCG,binding signal,EHF,1.14
same,binding signal,SPIB,1
same,binding signal,ETV5,1.12
TAGCTC,binding signal,SPIB,1.05
same,binding signal,ETV5,1.25
TTACGT,binding signal,SPIB,0.962
same,binding signal,ETV5,1.19
TTGAGG,binding signal,SPIB,0.951
same,binding signal,ETV5,1.09
TTGCCC,binding signal,SPIB,1.33
same,binding signal,ETV5,1.32
CTAGAA,binding signal,EHF,0.947
same,binding signal,SPIB,0.977
same,binding signal,ETV5,0.994
AATCAG,binding signal,SPIB,1.19
same,binding signal,ETV5,1.15
TTCGAC,binding signal,SPIB,1.45
same,binding signal,ETV5,1.46
TCAATC,binding signal,EHF,0.992
same,binding signal,SPIB,1.04
same,binding signal,ETV5,0.991
TTGTGC,binding signal,SPIB,1.1
same,binding signal,ETV5,1.17
TGGGGT,binding signal,EHF,1.03
same,binding signal,ETV5,1.13
TACAGG,binding signal,SPIB,1.2
same,binding signal,ETV5,1.24
CCGACT,binding signal,SPIB,1.64
same,binding signal,ETV5,1.44
CTCTCT,binding signal,SPIB,1.56
same,binding signal,ETV5,1.57
TTACCT,binding signal,SPIB,1.4
same,binding signal,ETV5,1.35
CACTGC,binding signal,SPIB,1.44
same,binding signal,ETV5,1.37
TAAACT,binding signal,EHF,1.15
same,binding signal,SPIB,1.23
same,binding signal,ETV5,1.23
CTGTAT,binding signal,EHF,1.3
same,binding signal,ETV5,1.35
ATATTG,binding signal,SPIB,1.28
same,binding signal,ETV5,1.37
ATAAGT,binding signal,EHF,1.04
same,binding signal,SPIB,0.995
same,binding signal,ETV5,0.991
CGCGGC,binding signal,EHF,0.982
same,binding signal,SPIB,0.975
same,binding signal,ETV5,0.974
CTAGCC,binding signal,EHF,1
same,binding signal,ETV5,0.931
ATGCCA,binding signal,EHF,1.05
same,binding signal,ETV5,1.05
ACTCCG,binding signal,EHF,1.42
same,binding signal,ETV5,1.44
TACAAA,binding signal,EHF,1.2
same,binding signal,ETV5,1.15
GATCTA,binding signal,EHF,0.987
same,binding signal,SPIB,1.06
same,binding signal,ETV5,0.99
ACCCTT,binding signal,EHF,1.18
same,binding signal,SPIB,1.19
same,binding signal,ETV5,1.25
TGACTG,binding signal,EHF,0.969
same,binding signal,ETV5,1.03
TTGAAA,binding signal,SPIB,1.1
same,binding signal,ETV5,1.18
CAACCC,binding signal,EHF,1.16
same,binding signal,SPIB,1.26
same,binding signal,ETV5,1.23
TCTCCT,binding signal,EHF,1.43
same,binding signal,ETV5,1.33
TGTGCA,binding signal,SPIB,1.18
same,binding signal,ETV5,1.15
TAGTTC,binding signal,SPIB,1.51
same,binding signal,ETV5,1.41
CCCCAG,binding signal,EHF,1
same,binding signal,SPIB,0.963
same,binding signal,ETV5,0.981
CCGGAC,binding signal,EHF,1.56
same,binding signal,SPIB,1.57
same,binding signal,ETV5,1.57
TTCTCT,binding signal,SPIB,1.16
same,binding signal,ETV5,1.24
GTGTTC,binding signal,SPIB,1.09
same,binding signal,ETV5,1.14
TACGTC,binding signal,SPIB,1.31
same,binding signal,ETV5,1.13
GGGTAT,binding signal,FLI1,0.956
same,binding signal,EHF,0.959
same,binding signal,ELF4,0.888
same,binding signal,ETV2,0.981
same,binding signal,ETV3L,0.945
GGTACT,binding signal,FLI1,1.25
same,binding signal,ELF4,1.24
same,binding signal,ETV2,0.991
GGGGCT,binding signal,FLI1,0.999
same,binding signal,EHF,0.938
same,binding signal,ELF4,1.1
same,binding signal,ETV2,0.934
same,binding signal,ETV3L,1.22
TCATAA,binding signal,FLI1,1.03
same,binding signal,EHF,0.992
same,binding signal,SPIB,0.986
same,binding signal,ELF4,0.993
same,binding signal,ETV2,0.919
same,binding signal,ETV3L,1
TATGAG,binding signal,FLI1,0.962
same,binding signal,SPIB,0.986
same,binding signal,ELF4,0.979
same,binding signal,ETV2,0.878
same,binding signal,ETV3L,0.959
GTTGGT,binding signal,FLI1,0.926
same,binding signal,EHF,0.993
same,binding signal,SPIB,0.913
same,binding signal,ELF4,0.983
same,binding signal,ETV2,0.821
same,binding signal,ETV3L,0.956
CATCCA,binding signal,FLI1,1.01
same,binding signal,EHF,0.981
same,binding signal,ELF4,1.02
same,binding signal,ETV2,0.987
same,binding signal,ETV3L,0.985
TTGGCG,binding signal,FLI1,1.07
same,binding signal,EHF,0.962
same,binding signal,ELF4,0.947
same,binding signal,ETV2,0.906
same,binding signal,ETV3L,0.992
AGGGCT,binding signal,FLI1,1.03
same,binding signal,EHF,1.04
same,binding signal,SPIB,0.905
same,binding signal,ELF4,1.07
same,binding signal,ETV2,0.826
same,binding signal,ETV3L,1.06
CATGCC,binding signal,FLI1,1.18
same,binding signal,ELF4,1.16
same,binding signal,ETV2,1.08
CGAGGT,binding signal,FLI1,0.97
same,binding signal,EHF,0.842
same,binding signal,SPIB,0.933
same,binding signal,ELF4,0.897
same,binding signal,ETV2,0.99
same,binding signal,ETV3L,0.864
AGCTCG,binding signal,FLI1,0.986
same,binding signal,EHF,0.997
same,binding signal,SPIB,0.99
same,binding signal,ELF4,0.996
same,binding signal,ETV2,1
same,binding signal,ETV3L,0.995
AGCAAC,binding signal,FLI1,1
same,binding signal,ELF4,1.1
same,binding signal,ETV2,0.941
same,binding signal,ETV3L,0.974

# Copied from the results shown (6 entries):
sequence,measurement,setting,value
CATCCA,binding signal,ETV2,0.987
same,binding signal,ETV3L,0.985
TTGGCG,binding signal,FLI1,1.07
same,binding signal,EHF,0.962
same,binding signal,ELF4,0.947
same,binding signal,ETV2,0.906

# Looked up one by one from the list above:
sequence,measurement,setting,value
ATATTG,binding signal,ETV5,1.37
TTGGCG,binding signal,ELF4,0.947
TTCGAC,binding signal,SPIB,1.45
